No constants are given. Whether binding was seen depends on the method and setting. Binding seen in cells or lysates may run through a third protein. For some of these results: A result given as binding can be weak or reduced; the word gives no strength. For some of these results: Where a sequence is shown, tags or fusion partners need not be part of it. One block for each molecule: values may come before it.
What was measured:
[1] = molecular target: endogenous ERG in VCaP cells (TMPRSS2:ERG truncated variant, Δ32) (human (endogenous in VCaP)) (UniProt P11308); assay: co-IP; VCaP cells, endogenous proteins; ERG and EZH2 specific antibodies and control IgG; RIPA lysates
[2] = molecular target: Myc-EZH2-ΔCXC (human); assay: co-IP; PC3 cells transiently transfected with truncated Myc-tagged EZH2 constructs along with the Ha-ERG plasmid
[3] = molecular target: Myc-EZH2-1-340 (human); assay: as above
[4] = molecular target: Myc-EZH2-ΔSET (human); assay: as above

Amino acid sequences for entries named in this document (tags omitted).
UniProt P10275: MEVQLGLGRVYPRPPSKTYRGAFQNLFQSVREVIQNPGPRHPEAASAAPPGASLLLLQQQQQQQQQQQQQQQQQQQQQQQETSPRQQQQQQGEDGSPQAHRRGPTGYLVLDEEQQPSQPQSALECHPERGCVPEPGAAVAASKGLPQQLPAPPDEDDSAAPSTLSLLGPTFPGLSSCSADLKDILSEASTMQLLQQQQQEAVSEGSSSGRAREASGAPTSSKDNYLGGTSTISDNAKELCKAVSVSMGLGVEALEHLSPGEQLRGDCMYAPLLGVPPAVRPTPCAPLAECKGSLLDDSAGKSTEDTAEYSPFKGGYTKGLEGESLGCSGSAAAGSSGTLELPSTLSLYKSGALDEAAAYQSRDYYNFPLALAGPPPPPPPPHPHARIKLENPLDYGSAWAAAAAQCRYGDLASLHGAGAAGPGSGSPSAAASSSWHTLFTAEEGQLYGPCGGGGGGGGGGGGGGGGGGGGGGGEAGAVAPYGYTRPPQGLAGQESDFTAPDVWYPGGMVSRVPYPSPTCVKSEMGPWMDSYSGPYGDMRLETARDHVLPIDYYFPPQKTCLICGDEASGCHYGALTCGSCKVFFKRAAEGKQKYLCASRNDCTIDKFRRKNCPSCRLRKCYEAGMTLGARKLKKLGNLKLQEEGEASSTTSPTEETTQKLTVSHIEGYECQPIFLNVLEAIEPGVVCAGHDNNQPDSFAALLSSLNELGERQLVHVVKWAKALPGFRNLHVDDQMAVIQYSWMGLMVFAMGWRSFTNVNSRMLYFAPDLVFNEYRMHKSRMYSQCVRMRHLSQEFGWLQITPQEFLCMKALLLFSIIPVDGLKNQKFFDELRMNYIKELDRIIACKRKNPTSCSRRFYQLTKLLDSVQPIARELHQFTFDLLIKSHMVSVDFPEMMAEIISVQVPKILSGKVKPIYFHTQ

binding [1]: binds
Molecule: AR, endogenous in VCaP cells (from UniProt P10275 1-920)

binding [2]: binds
binding [3]: no binding
binding [4]: binds
B1: HA-tagged ERG (pCEFL-ha-ERG) (protein, UniProt P11308 1-479)
chain: MASTIKEALSVVSEDQSLFECAYGTPHLAKTEMTASSSSDYGQTSKMSPRVPQQDWLSQPPARVTIKMECNPSQVNGSRNSPDECSVAKGGKMVGSPDTVGMNYGSYMEEKHMPPPNMTTNERRVIVPADPTLWSTDHVRQWLEWAVKEYGLPDVNILLFQNIDGKELCKMTKDDFQRLTPSYNADILLSHLHYLRETPLPHLTSDDVDKALQNSPRLMHARNTGGAAFIFPNTSVYPEATQRITTRPDLPYEPPRRSAWTGHGHPTPQSKAAQPSPSTVPKTEDQRPQLDPYQILGPTSSRLANPGSGQIQLWQFLLELLSDSSNSSCITWEGTNGEFKMTDPDEVARRWGERKSKPNMNYDKLSRALRYYYDKNIMTKVHGKRYAYKFDFHGIAQALQPHPPESSLYKYPSDLPYMGSYHAHPQKMNFVAPHPPALPVTSSSFFAAPNPYWNSPTGGIYPNTRLPTSHMPSHLGTYY

— publication PMC8260656
